Data on 2 molecules can be found in US20200148778A1.

Protein sequences, listed by entry. Tags and fused reporters are not part of them. Residues count along the entry.
UniProt P25942, residues 21-193: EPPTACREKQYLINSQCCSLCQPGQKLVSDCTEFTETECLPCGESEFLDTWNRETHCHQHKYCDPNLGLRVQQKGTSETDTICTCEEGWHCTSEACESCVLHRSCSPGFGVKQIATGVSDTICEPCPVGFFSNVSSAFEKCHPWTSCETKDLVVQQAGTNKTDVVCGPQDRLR

No constants are given. Whether binding was seen depends on the method and setting. Some results given as binding are weak or reduced against the parent protein; the word gives no strength.

The assay concerns the target His-tagged human CD40 (h-CD40-his) recombinant protein (human) (UniProt P25942). The assay is described as follows: ELISA. (In general: ELISA stands for enzyme-linked immunosorbent assay.)

B1: humanized anti-CD40 antibody hu2H6 (H1b heavy chain and L1c light chain) (antibody, human IgG1, kappa, V domains shown)
VH: QVQLVQSGAEVKKPGSSVKVSCKASGYAFSDYLIEWVRQAPGQGLEWMGVINPGSGGSNYNEKIKDRVTLTADKSTSTAYMELSSLRSEDTAVYYCARGGGGFTYWGQGTLVTVSS
VL: DIQLTQSPSSLSASVGDRVTITCRASQDISNYLNWYQQKPGKTIKLLLNFASRLHSGVPSRFSGSGSGTDFTFTISSLQPEDIATYYCQQGSTLPWTFGGGTKVEIKR
With B1, the binding entry was “binds”.

B2: humanized anti-CD40 antibody hu9E5 (H1c heavy chain and L1a light chain) (antibody, human IgG1, kappa, V domains shown)
VH: QVQLVQSGAEVKKPGASVKVSCKASGYILTTYWITWVRQAPGQGLEWMGDIHPGSGSTKYNEKFKSRVTLTVDTSISTAYMELSRLRSEDTAVYYCARRDYWGQGTTVTVSS
VL: DIVMTQSPLSLPVTPGEPASISCRSSQNIVNSQGNTYLEWYLQKPGQSPQLLIYKVTNRFSGVPDRFSGSGSGTDFTLKISRVEAEDVGVYYCFQASLVPWTFGGGTKVEIKR
Turning to B2, the binding entry was “binds”.
